The record followed here is patent US6833256.

No constants are given. Whether binding was seen depends on the method and setting. Some results given as binding are weak or reduced against the parent protein; the word gives no strength.

In assay [1] the target is T1, common type I IFN receptor on Madin Darby bovine kidney (MDBK) cells (bovine (MDBK cells)) (UniProt Q04790+Q95141).
T1 sequence (looked up) 1: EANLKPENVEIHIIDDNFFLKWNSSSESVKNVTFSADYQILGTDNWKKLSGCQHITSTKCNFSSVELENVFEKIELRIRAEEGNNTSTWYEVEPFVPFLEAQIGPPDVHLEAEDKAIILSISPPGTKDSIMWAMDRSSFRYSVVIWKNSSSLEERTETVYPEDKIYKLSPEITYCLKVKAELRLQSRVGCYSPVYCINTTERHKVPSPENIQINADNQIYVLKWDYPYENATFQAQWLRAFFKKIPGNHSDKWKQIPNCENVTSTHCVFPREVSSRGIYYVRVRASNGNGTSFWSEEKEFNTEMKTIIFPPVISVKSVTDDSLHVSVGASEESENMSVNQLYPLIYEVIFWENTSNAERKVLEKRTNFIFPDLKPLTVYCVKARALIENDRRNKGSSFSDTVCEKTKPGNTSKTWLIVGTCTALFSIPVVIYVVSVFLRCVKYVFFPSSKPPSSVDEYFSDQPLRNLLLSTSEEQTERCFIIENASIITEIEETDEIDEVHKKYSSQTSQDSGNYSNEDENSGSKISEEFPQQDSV
T1 sequence (looked up) 2: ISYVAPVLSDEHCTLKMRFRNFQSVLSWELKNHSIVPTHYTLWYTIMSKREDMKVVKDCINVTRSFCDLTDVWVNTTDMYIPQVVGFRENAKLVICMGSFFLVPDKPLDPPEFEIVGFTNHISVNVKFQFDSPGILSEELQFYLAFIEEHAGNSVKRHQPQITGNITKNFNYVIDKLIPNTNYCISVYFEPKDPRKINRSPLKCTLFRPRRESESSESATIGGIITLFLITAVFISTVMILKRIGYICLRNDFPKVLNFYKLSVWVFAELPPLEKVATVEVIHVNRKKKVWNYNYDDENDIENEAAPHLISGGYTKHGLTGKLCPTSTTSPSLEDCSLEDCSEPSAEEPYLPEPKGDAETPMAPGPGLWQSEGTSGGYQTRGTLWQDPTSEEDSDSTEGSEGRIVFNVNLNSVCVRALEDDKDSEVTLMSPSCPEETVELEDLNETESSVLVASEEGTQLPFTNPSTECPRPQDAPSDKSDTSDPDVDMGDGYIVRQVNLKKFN
Kind of assay: competitive displacement of 3 nM 125I-ovIFN-tau1mod from MDBK cells by 300 nM unlabeled IFN; compared with human IFN-alphaA.

Assay [2] has as its target T1, common type I IFN receptor on Madin Darby bovine kidney (MDBK) cells (bovine (MDBK cells)). Kind of assay: competitive displacement of 125I-ovIFN-tau1mod from MDBK cells.
Assay [3] shares this target. As to the kind of experiment: competitive displacement of 3 nM 125I-ovIFN-tau1mod from MDBK cells by 300 nM unlabeled IFN.
The target is the same in assay [4]. Kind of assay: competitive displacement of 125I-ovIFN-tau1mod from MDBK cells; relative to the parental IFN-tau.
Assay [5] shares this target. Kind of assay: competitive displacement of 3 nM 125I-ovIFN-tau1mod from MDBK cells by 300 nM unlabeled IFN; still not to the same extent as human IFN-alphaA.

B1: ovine IFN-tau1mod (native ovine interferon-tau isoform 1mod) (ligand)
chain: CYLSRKLMLDARENLKLLDRMNRLSPHSCLQDRKDFGLPQEMVEGDQLQKDQAFPVLYEMLQQSFNLFYTEHSSAAWDTTLLEQLCTGLQQQLDHLDTCRGQGMGEEDSELGNMDPIVTVKKYFQGIYDYLQEKGYSDCAWEIVRVEMMRALTVSTTLQKRLTKMGGDLNSP
For B1, in assay [1], the binding result is given as “binds”.

B2: IFN-tau 13 E:R mutant (ligand)
chain: CYLSRKLMLDARRNLKLLDRMNRLSPHSCLQDRKDFGLPQEMVEGDQLQKDQAFPVLYEMLQQSFNLFYTEHSSAAWDTTLLEQLCTGLQQQLDHLDTCRGQGMGEEDSELGNMDPIVTVKKYFQGIYDYLQEKGYSDCAWEIVRVEMMRALTVSTTLQKRLTKMGGDLNSP
Consider B2, for which, in assay [2], the binding entry is listed as “binds”.

B3: IFN-tau 34 K:H mutant (ligand)
chain: CYLSRKLMLDARENLKLLDRMNRLSPHSCLQDRHDFGLPQEMVEGDQLQKDQAFPVLYEMLQQSFNLFYTEHSSAAWDTTLLEQLCTGLQQQLDHLDTCRGQGMGEEDSELGNMDPIVTVKKYFQGIYDYLQEKGYSDCAWEIVRVEMMRALTVSTTLQKRLTKMGGDLNSP
As for B3, the binding result in assay [3] is “binds”.

B4: IFN-tau 24 L:I mutant (ligand)
chain: CYLSRKLMLDARENLKLLDRMNRISPHSCLQDRKDFGLPQEMVEGDQLQKDQAFPVLYEMLQQSFNLFYTEHSSAAWDTTLLEQLCTGLQQQLDHLDTCRGQGMGEEDSELGNMDPIVTVKKYFQGIYDYLQEKGYSDCAWEIVRVEMMRALTVSTTLQKRLTKMGGDLNSP
Take B4: in assay [3], the binding result was “binds”.

B5: IFN-tau 26 P:L mutant (ligand)
chain: CYLSRKLMLDARENLKLLDRMNRLSLHSCLQDRKDFGLPQEMVEGDQLQKDQAFPVLYEMLQQSFNLFYTEHSSAAWDTTLLEQLCTGLQQQLDHLDTCRGQGMGEEDSELGNMDPIVTVKKYFQGIYDYLQEKGYSDCAWEIVRVEMMRALTVSTTLQKRLTKMGGDLNSP
Regarding B5, the binding result in assay [4] and in assay [5] was “binds” each time.
